Data on 2 molecules can be found in article PMC4423191.

Protein sequences, listed by entry. Tags and fused reporters are not part of them.
UniProt P78527: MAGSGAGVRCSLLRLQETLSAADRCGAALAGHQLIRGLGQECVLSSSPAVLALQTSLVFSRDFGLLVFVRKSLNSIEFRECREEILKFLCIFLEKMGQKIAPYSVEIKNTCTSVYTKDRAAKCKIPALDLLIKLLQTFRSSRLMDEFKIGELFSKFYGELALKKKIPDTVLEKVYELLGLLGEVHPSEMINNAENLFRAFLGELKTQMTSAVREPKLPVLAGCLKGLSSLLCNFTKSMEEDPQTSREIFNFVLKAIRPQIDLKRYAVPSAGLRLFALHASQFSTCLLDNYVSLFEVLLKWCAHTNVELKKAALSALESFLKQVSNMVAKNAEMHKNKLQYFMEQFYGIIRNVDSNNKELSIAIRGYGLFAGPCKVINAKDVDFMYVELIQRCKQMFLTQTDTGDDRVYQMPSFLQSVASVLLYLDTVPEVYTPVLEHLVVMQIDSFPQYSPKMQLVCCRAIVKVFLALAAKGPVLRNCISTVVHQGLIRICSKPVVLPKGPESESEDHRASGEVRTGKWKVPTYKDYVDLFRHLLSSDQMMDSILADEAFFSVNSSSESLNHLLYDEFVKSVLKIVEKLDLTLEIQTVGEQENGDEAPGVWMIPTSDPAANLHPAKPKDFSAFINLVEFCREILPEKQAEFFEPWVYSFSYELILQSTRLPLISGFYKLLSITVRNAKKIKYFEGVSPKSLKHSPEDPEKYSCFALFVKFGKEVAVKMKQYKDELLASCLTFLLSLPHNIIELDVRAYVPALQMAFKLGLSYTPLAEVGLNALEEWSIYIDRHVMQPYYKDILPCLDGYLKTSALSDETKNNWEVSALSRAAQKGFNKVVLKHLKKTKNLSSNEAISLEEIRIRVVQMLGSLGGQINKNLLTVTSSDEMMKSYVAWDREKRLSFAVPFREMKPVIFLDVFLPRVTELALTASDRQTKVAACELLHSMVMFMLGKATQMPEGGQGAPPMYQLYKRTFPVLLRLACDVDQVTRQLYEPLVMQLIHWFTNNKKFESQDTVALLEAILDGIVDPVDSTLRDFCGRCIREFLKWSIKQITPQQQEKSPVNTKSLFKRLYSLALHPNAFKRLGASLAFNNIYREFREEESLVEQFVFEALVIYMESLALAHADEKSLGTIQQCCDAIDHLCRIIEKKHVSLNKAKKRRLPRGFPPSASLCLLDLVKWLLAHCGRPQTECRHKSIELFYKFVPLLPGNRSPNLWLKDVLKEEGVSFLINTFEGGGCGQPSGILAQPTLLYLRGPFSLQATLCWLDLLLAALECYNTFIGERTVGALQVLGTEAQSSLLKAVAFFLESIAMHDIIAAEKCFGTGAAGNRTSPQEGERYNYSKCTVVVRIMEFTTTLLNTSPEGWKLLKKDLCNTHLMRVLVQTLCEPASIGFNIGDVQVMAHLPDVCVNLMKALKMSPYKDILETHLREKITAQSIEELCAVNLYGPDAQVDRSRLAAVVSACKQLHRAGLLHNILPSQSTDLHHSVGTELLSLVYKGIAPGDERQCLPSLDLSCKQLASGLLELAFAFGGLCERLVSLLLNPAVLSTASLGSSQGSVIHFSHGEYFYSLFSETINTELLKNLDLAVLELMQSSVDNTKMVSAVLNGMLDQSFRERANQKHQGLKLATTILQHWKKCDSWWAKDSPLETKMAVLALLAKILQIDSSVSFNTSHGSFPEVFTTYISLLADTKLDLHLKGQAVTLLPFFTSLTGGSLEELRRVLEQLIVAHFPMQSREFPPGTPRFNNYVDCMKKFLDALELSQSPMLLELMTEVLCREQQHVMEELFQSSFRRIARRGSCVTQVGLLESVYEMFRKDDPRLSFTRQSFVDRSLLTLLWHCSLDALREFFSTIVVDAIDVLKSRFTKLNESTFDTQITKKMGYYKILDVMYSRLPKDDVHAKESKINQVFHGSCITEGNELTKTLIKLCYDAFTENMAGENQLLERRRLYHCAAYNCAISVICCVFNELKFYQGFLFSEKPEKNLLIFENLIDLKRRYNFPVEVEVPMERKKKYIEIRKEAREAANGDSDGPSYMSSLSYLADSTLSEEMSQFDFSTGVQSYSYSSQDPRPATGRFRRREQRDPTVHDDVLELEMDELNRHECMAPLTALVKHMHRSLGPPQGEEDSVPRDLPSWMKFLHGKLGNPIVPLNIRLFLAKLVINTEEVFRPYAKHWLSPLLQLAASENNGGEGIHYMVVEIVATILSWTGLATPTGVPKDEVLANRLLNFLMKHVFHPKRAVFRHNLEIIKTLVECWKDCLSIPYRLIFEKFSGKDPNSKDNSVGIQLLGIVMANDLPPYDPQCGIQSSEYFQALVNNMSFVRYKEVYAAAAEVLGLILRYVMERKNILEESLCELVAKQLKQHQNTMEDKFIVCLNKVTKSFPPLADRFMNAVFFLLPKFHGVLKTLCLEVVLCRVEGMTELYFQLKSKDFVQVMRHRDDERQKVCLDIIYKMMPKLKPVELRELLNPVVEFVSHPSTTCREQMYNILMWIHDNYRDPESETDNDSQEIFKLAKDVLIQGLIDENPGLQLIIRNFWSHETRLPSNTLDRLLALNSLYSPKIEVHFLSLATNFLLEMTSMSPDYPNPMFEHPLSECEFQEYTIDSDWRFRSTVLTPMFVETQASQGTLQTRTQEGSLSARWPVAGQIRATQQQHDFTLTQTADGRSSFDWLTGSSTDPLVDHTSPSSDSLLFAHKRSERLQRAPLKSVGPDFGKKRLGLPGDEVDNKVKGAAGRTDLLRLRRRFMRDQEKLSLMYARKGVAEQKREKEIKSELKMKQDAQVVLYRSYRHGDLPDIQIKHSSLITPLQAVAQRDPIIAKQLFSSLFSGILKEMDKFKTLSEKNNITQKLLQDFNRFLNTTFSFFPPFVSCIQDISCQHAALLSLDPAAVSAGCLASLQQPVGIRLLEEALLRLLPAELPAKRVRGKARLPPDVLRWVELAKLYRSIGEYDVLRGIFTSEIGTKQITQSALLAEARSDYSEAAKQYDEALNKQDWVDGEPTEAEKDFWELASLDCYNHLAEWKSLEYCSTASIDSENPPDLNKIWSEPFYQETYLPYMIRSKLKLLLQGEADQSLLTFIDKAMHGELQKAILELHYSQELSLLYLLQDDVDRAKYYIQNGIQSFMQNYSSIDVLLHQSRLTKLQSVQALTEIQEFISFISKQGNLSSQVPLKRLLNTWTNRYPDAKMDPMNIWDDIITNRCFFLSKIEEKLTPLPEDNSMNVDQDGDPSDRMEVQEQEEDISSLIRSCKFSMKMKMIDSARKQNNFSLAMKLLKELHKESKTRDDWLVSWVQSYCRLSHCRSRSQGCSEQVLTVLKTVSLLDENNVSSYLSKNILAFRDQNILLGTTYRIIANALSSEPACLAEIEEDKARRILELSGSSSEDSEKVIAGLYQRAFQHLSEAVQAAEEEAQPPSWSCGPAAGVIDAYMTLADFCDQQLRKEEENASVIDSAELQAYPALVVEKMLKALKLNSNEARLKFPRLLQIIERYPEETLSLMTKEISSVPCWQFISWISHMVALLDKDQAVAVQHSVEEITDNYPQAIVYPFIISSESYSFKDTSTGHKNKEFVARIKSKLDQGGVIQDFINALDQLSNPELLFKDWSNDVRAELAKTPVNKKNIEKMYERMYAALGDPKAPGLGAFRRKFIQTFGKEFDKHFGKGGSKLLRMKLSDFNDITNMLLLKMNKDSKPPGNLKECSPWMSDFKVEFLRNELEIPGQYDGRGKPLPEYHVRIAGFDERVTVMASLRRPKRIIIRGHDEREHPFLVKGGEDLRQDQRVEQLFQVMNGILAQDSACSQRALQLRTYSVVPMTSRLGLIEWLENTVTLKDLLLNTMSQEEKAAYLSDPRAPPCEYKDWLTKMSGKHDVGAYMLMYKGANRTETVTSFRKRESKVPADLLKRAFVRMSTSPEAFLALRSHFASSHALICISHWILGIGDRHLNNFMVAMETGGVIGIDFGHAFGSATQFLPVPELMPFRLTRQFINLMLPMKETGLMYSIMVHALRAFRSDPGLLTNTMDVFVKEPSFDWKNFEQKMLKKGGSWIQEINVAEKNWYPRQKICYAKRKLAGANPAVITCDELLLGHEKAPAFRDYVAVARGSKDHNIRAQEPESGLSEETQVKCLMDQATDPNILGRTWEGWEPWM
UniProt P09874: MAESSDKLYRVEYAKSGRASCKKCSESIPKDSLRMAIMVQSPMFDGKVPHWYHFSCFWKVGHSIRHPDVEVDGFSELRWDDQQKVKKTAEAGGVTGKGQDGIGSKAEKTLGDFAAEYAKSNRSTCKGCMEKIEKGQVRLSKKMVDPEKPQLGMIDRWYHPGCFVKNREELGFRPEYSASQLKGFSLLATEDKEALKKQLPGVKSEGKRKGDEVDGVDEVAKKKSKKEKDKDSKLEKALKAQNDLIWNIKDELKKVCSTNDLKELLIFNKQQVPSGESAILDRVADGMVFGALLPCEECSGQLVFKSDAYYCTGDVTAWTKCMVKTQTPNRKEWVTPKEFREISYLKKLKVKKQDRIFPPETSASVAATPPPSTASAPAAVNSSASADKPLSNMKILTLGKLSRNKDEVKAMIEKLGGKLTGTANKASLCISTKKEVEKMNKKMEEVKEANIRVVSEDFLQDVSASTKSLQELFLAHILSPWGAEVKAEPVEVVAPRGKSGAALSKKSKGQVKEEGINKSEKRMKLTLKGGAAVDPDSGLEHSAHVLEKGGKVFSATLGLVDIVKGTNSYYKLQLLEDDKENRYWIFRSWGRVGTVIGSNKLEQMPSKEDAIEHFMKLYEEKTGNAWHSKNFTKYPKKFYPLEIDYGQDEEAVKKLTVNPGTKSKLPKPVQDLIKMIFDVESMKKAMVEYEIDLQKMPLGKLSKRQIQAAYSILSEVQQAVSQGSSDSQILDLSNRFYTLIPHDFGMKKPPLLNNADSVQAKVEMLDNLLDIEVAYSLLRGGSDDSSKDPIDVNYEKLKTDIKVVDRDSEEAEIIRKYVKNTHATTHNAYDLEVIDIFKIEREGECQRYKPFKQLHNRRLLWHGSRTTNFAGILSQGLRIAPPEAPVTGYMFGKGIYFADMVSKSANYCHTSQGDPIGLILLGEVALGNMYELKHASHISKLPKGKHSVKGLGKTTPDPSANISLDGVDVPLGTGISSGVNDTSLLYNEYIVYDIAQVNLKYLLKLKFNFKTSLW

Results are given in words; binding and its absence hold for the method and conditions named. In cells and extracts the contact can be indirect. These calls come from enrichment with a bait or labelling near it, and not all partners need be listed.

The target in the experiment is FLAG-tagged DNA-PKcs (DNA-dependent protein kinase catalytic subunit) (UniProt P78527). As to the kind of experiment: affinity purification with mass spectrometry; anti-FLAG IP of FLAG-DNA-PKcs from HEK293 nuclear extracts, FLAG peptide elution, SDS-PAGE, in-gel trypsin digest, LC-MS/MS (HDMS^E), control HEK293 cells for comparison.

Turning to PARP1 (from UniProt P09874 1-1014), the binding entry is on record as “binds”.

B1: protein phosphatase 6 regulatory subunit 3 (PP6R3) (protein, UniProt Q5H9R7 1-873)
chain: MFWKFDLHSSSHIDTLLEREDVTLKELMDEEDVLQECKAQNRKLIEFLLKAECLEDLVSFIIEEPPQDMDEKIRYKYPNISCELLTSDVSQMNDRLGEDESLLMKLYSFLLNDSPLNPLLASFFSKVLSILISRKPEQIVDFLKKKHDFVDLIIKHIGTSAIMDLLLRLLTCIEPPQPRQDVLNWLNEEKIIQRLVEIVHPSQEEDRHSNASQSLCEIVRLSRDQMLQIQNSTEPDPLLATLEKQEIIEQLLSNIFHKEKNESAIVSAIQILLTLLETRRPTFEGHIEICPPGMSHSACSVNKSVLEAIRGRLGSFHELLLEPPKKSVMKTTWGVLDPPVGNTRLNVIRLISSLLQTNTSSINGDLMELNSIGVILNMFFKYTWNNFLHTQVEICIALILASPFENTENATITDQDSTGDNLLLKHLFQKCQLIERILEAWEMNEKKQAEGGRRHGYMGHLTRIANCIVHSTDKGPNSALVQQLIKDLPDEVRERWETFCTSSLGETNKRNTVDLVTTCHIHSSSDDEIDFKETGFSQDSSLQQAFSDYQMQQMTSNFIDQFGFNDEKFADQDDIGNVSFDRVSDINFTLNTNESGNIALFEACCKERIQQFDDGGSDEEDIWEEKHIAFTPESQRRSSSGSTDSEESTDSEEEDGAKQDLFEPSSANTEDKMEVDLSEPPNWSANFDVPMETTHGAPLDSVGSDVWSTEEPMPTKETGWASFSEFTSSLSTKDSLRSNSPVEMETSTEPMDPLTPSAAALAVQPEAAGSVAMEASSDGEEDAESTDKVTETVMNGGMKETLSLTVDAKTETAVFKSEEGKLSTSQDAACKDAEECPETAEAKCAAPRPPSSSPEQRTGQPSAPGDTSVNGPV
As for B1, the binding result is given as “binds”.
